The match of structure and compound is tentative.

Sequences of proteins named here, by UniProt entry; tags and fusion partners are left off. Residues count along the entry.
UniProt Q02763, 23-1124 limits assumed: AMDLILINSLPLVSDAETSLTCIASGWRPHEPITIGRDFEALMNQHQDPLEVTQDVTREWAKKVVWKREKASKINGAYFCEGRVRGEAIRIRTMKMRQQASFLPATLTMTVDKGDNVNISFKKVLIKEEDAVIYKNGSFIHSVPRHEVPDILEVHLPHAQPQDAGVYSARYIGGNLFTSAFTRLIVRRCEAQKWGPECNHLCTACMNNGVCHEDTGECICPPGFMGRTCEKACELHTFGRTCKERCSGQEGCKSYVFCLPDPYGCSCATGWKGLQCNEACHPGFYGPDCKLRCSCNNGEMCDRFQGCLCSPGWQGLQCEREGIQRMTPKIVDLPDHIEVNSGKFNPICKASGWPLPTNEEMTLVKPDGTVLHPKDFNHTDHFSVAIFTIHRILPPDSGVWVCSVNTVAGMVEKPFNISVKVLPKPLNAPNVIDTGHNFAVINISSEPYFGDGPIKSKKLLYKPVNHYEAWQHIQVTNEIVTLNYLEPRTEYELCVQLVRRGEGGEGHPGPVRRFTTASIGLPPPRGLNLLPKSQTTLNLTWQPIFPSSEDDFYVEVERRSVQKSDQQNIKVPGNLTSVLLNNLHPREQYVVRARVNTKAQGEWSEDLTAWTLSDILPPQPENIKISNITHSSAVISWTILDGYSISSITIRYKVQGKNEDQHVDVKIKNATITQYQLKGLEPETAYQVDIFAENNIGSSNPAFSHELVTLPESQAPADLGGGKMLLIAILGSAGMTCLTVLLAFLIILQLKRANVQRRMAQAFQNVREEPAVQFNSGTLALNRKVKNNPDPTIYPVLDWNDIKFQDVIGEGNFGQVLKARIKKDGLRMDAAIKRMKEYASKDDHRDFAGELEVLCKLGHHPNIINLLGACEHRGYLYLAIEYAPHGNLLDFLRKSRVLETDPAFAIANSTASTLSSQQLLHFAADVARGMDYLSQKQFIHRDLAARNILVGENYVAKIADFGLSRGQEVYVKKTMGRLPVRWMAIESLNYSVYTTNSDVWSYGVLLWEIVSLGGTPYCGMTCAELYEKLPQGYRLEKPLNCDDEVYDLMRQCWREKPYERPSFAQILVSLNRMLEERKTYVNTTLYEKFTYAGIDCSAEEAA

The test deals with Tie-2 (Homo sapiens, UniProt Q02763). As to the kind of experiment: Tie-2 tyrosine kinase activity assay (luciferase/luciferin ATP consumption with pEY substrate, or 33P-ATP incorporation). The following applies: read-out: IC50 Tie-2; human enzyme Tie-2.

`CCc1cccc(NC(=O)N2CCN(c3nsnc3OCc3ccnc(N)c3)CC2)c1`: the IC50 was in the range of 50 to 1000 nM. Turning to `O=C(Nc1cc(C(F)(F)F)cc(C(F)(F)F)c1)N1CCN(c2nccnc2OCc2ccnc(Br)c2)CC1`, the concentration for half-maximal inhibition (IC50) was 50 to 1000 nM.

One may read the IC50 as the concentration that gives 50% inhibition.

The values are drawn from patent US8013156B2 (Exelixis, Inc., priority 2003, dated 2011).
